From publication PMC2680336
Where two headings read alike, the source gives them in different places. Results are given in words; binding and its absence hold for the method and conditions named. Binding seen in cells or lysates may run through a third protein. Some results given as binding are weak or reduced against the parent protein; the word gives no strength. For some of these results: Tags and fused reporters may be left off the sequences shown.

Amino acid sequences for entries named in this document (tags omitted).
UniProt P53350: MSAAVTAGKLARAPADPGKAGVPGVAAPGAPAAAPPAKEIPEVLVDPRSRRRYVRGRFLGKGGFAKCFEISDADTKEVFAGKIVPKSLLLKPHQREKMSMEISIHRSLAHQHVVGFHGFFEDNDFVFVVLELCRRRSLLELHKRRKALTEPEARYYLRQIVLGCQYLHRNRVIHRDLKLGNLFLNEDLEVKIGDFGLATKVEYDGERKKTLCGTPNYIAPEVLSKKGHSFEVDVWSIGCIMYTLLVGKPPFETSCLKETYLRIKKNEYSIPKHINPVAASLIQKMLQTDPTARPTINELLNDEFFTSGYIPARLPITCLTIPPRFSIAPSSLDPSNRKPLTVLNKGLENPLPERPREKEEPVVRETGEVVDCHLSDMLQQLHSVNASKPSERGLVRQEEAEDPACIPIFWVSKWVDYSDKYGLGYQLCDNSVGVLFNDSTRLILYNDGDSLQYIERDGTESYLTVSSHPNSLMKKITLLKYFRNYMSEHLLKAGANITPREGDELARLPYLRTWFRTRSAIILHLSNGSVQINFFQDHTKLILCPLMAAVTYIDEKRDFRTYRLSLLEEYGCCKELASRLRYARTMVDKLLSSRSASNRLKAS

Tests used:
[1] = molecular target: T1, HsCYK-4 (RhoGAP subunit of centralspindlin), endogenous (human (endogenous in HeLa)) (UniProt Q9H0H5); experiment: co-IP; anti-HsCYK-4 (or control goat IgG) immunoprecipitation from DSP-treated whole-cell extracts of HeLa cells released from a nocodazole block, sampled at timepoints; blots for Plk1 and Ect2; lysis buffer 50 mM HEPES pH 7.5, 100 mM NaCl, 0.5% NP-40, 10% glycerol
T1 sequence: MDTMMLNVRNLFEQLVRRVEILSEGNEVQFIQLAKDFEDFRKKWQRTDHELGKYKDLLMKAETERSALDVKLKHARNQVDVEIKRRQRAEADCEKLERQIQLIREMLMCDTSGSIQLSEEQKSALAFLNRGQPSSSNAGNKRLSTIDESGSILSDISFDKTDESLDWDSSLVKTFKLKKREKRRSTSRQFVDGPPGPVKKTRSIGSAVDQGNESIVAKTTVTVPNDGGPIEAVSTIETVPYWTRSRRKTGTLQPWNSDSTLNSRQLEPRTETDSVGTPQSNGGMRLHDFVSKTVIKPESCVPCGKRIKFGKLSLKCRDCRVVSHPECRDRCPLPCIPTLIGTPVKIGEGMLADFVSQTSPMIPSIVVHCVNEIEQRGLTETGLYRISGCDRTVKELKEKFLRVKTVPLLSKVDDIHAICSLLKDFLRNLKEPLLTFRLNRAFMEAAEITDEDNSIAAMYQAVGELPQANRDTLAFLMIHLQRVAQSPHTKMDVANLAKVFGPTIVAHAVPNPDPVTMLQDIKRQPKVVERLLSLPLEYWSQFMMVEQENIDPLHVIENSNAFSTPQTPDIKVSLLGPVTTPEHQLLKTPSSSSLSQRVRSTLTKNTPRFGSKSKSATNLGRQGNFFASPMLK

[2] = molecular target: T1, HsCYK-4 (RhoGAP subunit of centralspindlin), endogenous (human (endogenous in HeLa)); experiment: as above; remark: listed apart in the source
[3] = molecular target: T2, myc-BRCT* (myc-tagged N-terminal fragment of Ect2, 1-352 T342A) (human) (UniProt Q9H8V3); experiment: co-IP; HeLa cotransfected with FLAG-HsCYK-4 versions and myc-BRCT*; mitotic cell extracts immunoprecipitated with anti-myc, blots with anti-FLAG and anti-myc; with or without Plk1 inhibition; control with myc peptide as competitor
T2 sequence: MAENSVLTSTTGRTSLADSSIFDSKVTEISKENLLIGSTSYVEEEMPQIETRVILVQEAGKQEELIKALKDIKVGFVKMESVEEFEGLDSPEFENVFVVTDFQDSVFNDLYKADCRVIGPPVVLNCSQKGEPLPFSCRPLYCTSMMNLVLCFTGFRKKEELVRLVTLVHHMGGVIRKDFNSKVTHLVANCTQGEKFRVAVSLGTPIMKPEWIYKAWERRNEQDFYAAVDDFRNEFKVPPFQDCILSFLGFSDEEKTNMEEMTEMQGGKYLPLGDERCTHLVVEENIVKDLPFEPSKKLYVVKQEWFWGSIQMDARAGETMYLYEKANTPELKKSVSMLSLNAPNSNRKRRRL

[4] = molecular target: T3, myc-Ect2 (full-length Ect2, myc epitope-tagged) (human) (UniProt Q9H8V3); experiment: co-IP; HeLa cotransfected with FLAG-HsCYK-4 versions and myc-Ect2; arrested 15 h with 5 uM S-trityl-L-cysteine (+ 200 nM BI 2536 where indicated), then RO-3306 for 20 min; whole-cell extracts immunoprecipitated with anti-myc, blots with anti-FLAG and anti-myc
T3 sequence: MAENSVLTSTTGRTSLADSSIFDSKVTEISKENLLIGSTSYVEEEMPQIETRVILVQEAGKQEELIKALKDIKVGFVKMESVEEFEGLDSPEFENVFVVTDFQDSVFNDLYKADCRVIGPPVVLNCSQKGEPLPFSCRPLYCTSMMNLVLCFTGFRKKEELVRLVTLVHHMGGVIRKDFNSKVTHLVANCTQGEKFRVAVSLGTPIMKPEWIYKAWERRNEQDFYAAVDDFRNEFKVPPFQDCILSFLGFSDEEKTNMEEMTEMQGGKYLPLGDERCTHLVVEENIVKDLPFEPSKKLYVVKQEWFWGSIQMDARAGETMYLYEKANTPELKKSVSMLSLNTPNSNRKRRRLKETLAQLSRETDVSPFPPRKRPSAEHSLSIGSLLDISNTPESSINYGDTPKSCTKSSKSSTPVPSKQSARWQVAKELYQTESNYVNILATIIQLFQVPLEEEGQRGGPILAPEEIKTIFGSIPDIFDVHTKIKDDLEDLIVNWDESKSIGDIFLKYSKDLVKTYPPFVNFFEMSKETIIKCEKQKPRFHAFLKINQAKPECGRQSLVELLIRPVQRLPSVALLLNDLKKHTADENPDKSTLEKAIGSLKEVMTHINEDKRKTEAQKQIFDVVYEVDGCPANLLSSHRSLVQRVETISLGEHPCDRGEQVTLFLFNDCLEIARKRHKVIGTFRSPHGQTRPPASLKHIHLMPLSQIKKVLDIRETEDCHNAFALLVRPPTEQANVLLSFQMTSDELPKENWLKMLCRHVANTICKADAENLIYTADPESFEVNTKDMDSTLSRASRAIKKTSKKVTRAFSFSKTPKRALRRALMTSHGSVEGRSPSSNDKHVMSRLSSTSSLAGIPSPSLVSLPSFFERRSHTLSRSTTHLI

Molecule: Polo-like kinase 1 (Plk1), endogenous (from UniProt P53350 1-603)
- binding [1]: binds weakly

B1: Ect2 (Rho GTP exchange factor), endogenous (protein, UniProt Q9H8V3-4 1-883)
chain: MAENSVLTSTTGRTSLADSSIFDSKVTEISKENLLIGSTSYVEEEMPQIETRVILVQEAGKQEELIKALKDIKVGFVKMESVEEFEGLDSPEFENVFVVTDFQDSVFNDLYKADCRVIGPPVVLNCSQKGEPLPFSCRPLYCTSMMNLVLCFTGFRKKEELVRLVTLVHHMGGVIRKDFNSKVTHLVANCTQGEKFRVAVSLGTPIMKPEWIYKAWERRNEQDFYAAVDDFRNEFKVPPFQDCILSFLGFSDEEKTNMEEMTEMQGGKYLPLGDERCTHLVVEENIVKDLPFEPSKKLYVVKQEWFWGSIQMDARAGETMYLYEKANTPELKKSVSMLSLNTPNSNRKRRRLKETLAQLSRETDVSPFPPRKRPSAEHSLSIGSLLDISNTPESSINYGDTPKSCTKSSKSSTPVPSKQSARWQVAKELYQTESNYVNILATIIQLFQVPLEEEGQRGGPILAPEEIKTIFGSIPDIFDVHTKIKDDLEDLIVNWDESKSIGDIFLKYSKDLVKTYPPFVNFFEMSKETIIKCEKQKPRFHAFLKINQAKPECGRQSLVELLIRPVQRLPSVALLLNDLKKHTADENPDKSTLEKAIGSLKEVMTHINEDKRKTEAQKQIFDVVYEVDGCPANLLSSHRSLVQRVETISLGEHPCDRGEQVTLFLFNDCLEIARKRHKVIGTFRSPHGQTRPPASLKHIHLMPLSQIKKVLDIRETEDCHNAFALLVRPPTEQANVLLSFQMTSDELPKENWLKMLCRHVANTICKADAENLIYTADPESFEVNTKDMDSTLSRASRAIKKTSKKVTRAFSFSKTPKRALRRALMTSHGSVEGRSPSSNDKHVMSRLSSTSSLAGIPSPSLVSLPSFFERRSHTLSRSTTHLI
- binding [2]: binds

B2: FLAG-HsCYK-4, wild-type (protein, UniProt Q9H0H5 1-632)
chain: MDTMMLNVRNLFEQLVRRVEILSEGNEVQFIQLAKDFEDFRKKWQRTDHELGKYKDLLMKAETERSALDVKLKHARNQVDVEIKRRQRAEADCEKLERQIQLIREMLMCDTSGSIQLSEEQKSALAFLNRGQPSSSNAGNKRLSTIDESGSILSDISFDKTDESLDWDSSLVKTFKLKKREKRRSTSRQFVDGPPGPVKKTRSIGSAVDQGNESIVAKTTVTVPNDGGPIEAVSTIETVPYWTRSRRKTGTLQPWNSDSTLNSRQLEPRTETDSVGTPQSNGGMRLHDFVSKTVIKPESCVPCGKRIKFGKLSLKCRDCRVVSHPECRDRCPLPCIPTLIGTPVKIGEGMLADFVSQTSPMIPSIVVHCVNEIEQRGLTETGLYRISGCDRTVKELKEKFLRVKTVPLLSKVDDIHAICSLLKDFLRNLKEPLLTFRLNRAFMEAAEITDEDNSIAAMYQAVGELPQANRDTLAFLMIHLQRVAQSPHTKMDVANLAKVFGPTIVAHAVPNPDPVTMLQDIKRQPKVVERLLSLPLEYWSQFMMVEQENIDPLHVIENSNAFSTPQTPDIKVSLLGPVTTPEHQLLKTPSSSSLSQRVRSTLTKNTPRFGSKSKSATNLGRQGNFFASPMLK
- binding [3]: binds
- binding [4]: binds
